The results in this text go back to PubChem BioAssay AID493014 (National Center for Advancing Translational Sciences (NCATS), 2011).

The other results are listed elsewhere or left out. The main result of the screen is listed elsewhere. These columns were measured beside it and carry no call. Compounds called inactive in the main read-out are mostly missing here. The note in brackets gives the kind of curve behind each potency; many fits are weak.

A short description of the test: qHTS Assay to Find Inhibitors of Chronic Active B-Cell Receptor Signaling. Particulars: ABC-DLBCL IkBa-CBG/CBR reporter, luminescence ratio (green luciferase fused to IkBa over red control in TMD8 lymphoma cells), 4 h. The gist of the method:
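TMD8 ABC-DLBCL cells carrying doxycycline-inducible green luciferase fused to IkappaBalpha plus unfused red luciferase were exposed to compounds (up to 46 uM) for 4 hrs at 37C. Activity came from the overlap-corrected green/red luminescence ratio.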

Where [1] appears, read: measured here: CBR red luminescence, cell number.
Setting [2] is: measured here: IkBa-CBG green luminescence.

Broadly, the AC50 is the midpoint of the concentration-response curve, whichever way the signal moves.

In the case of `N#C/C(=C\C=C\c1ccccc1[N+](=O)[O-])C(=O)NC1CCCCC1`, the AC50 was 7.94 µM [falling, partial curve] under setting [1] and 7.08 µM [falling, partial curve, poor fit] under setting [2].
As to `O=C(Cn1c2c(c(=O)n3ncnc13)CCC2)N/N=C/c1cccs1`, under setting [1], the AC50 was 17.8 µM [rising, single point].
The same measure, in the same setting: then `O=C(c1ccc(F)cc1)N1CCCC(c2ccccc2)C1` (stereo not drawn), with 8.91 µM [rising, partial curve, poor fit].
Regarding `O=C(CSc1nccn(-c2ccc(Br)cc2)c1=O)Nc1ccccc1F`, the AC50 under setting [1] was 2.31 µM [falling, single point].
`COCCCn1c(SCC(=O)N2CCOCC2)nc2cc(Cl)ccc2c1=O`: the AC50 under setting [1] is 0.651 µM [falling, full curve, poor fit].
The same measure, in the same setting: then `N/C(=N\OC(=O)c1ccc2ccccc2c1)c1ccccc1Cl`, with 10 µM [falling, partial curve, poor fit].
The same measure, in the same setting: the value for `Clc1ccc(CNCCCSc2ncccn2)cc1` was 1.12 µM [rising, full curve, poor fit]; that for `Cc1ccc(S(=O)(=O)CCC(=O)OCC(=O)NCCc2ccc(S(N)(=O)=O)cc2)cc1` was 0.13 µM [falling, full curve, poor fit]; that for `COc1cccc(C(=O)NN=C2CCCC2)c1` was 5.01 µM [falling, partial curve].
Still for that read-out and setting: then `CCc1cccc(NC(=S)N(CCCOC(C)C)C2CCN(C(C)=O)CC2)c1`, with 3.16 µM [rising, partial curve].
With `COC(=O)c1ccc(C2C(Oc3ccccc3C)C(=O)N2CCc2ccc(OC)c(OC)c2)cc1` (stereo not drawn), under setting [1], the AC50 is 20 µM [falling, single point].
On the same count and under the same terms, then `O=C1/C(=C\c2ccsc2)NC(=S)N1c1ccccc1`, with 11.2 µM [falling, partial curve]; and `COc1ccc(OCC(=O)Nc2ccccc2O)cc1`, with 0.92 µM [falling, full curve].
Regarding `CCOC(=O)c1oc2cc(O)ccc2c(=O)c1-c1ccccc1OC`, the AC50 under setting [1] was 10 µM [falling, partial curve].
For the compound `O=C(/C=C/Sc1ncn[nH]1)c1ccc(Cl)cc1`, the AC50 is, setting by setting: under setting [1], 11.2 µM [falling, partial curve]; under setting [2], 3.55 µM [falling, single point].
Turning to `COc1cccc(-c2ncc3ccccc3c2COC(=O)c2ccc(F)cc2)c1`, the AC50 under setting [1] is 5.17 µM [falling, full curve].
Take `COc1cccc(CNC(=O)COC(=O)c2nc(Cl)c(Cl)c(Cl)c2Cl)c1`: the AC50 under setting [2] was 29.1 µM [falling, single point].
For the compound `CCOc1cc2[nH]c(=S)n(CCN3CCCCC3CC)c(=O)c2cc1OCC` (stereo not drawn), under setting [1], the AC50 was 32.6 µM [falling, single point].
Turning to `O=C(Nc1ccncc1)c1cc(-c2cccc(Br)c2)nc2ccccc12`, under setting [1], the AC50 was 16.4 µM [falling, partial curve, poor fit].
Take `Cc1ccc(/C=N/NC(=O)CSc2nc3ccccc3[nH]2)o1`: the AC50 under setting [1] was 15.8 µM [falling, partial curve].
Same read-out and setting: the value for `Cc1c(CBr)[n+](=O)c2c(n1[O-])C(Br)CCC2Br` (stereo not drawn) was 35.5 µM [rising, single point].
For `COc1ccc(/C=C(\NC(=O)c2cccs2)C(=O)Nc2cccc3ccccc23)cc1OC`, under setting [1], the AC50 was 3.26 µM [rising, full curve, poor fit].
Take `Cc1nc(SCC#N)c2c(C)c(C)sc2n1`: under setting [1], the AC50 is 0.82 µM [rising, full curve, poor fit].
The same measure, in the same setting: the value for `COc1cccc(NC(=O)N2CCCc3ccccc32)c1` was 31.6 µM [falling, single point]; that for `CCOC(=O)c1sc(N(Cc2ccccc2)C(=O)COC(=O)c2ccc(O)cc2)nc1C` was 23.1 µM [falling, single point].
Same read-out and setting: the value for `COc1ccc(CCN(Cc2nc3ccccc3c(=O)[nH]2)C(=O)c2ccco2)cc1OC` was 0.708 µM [rising, full curve, poor fit]; that for `Cc1ccc(Nc2nnc(SC(C)C(=O)NCC3CCCO3)s2)cc1C` (stereo not drawn) was 6.51 µM [rising, partial curve, poor fit].
In the case of `COc1ccc(-c2nc3ccc(C)cn3c2NCc2ccc3c(c2)OCO3)cc1`, under setting [1], the AC50 is 35.5 µM [falling, single point].
On the same count and under the same terms, then `CCc1nc2ccccc2c(C(=O)O)c1C`, with 9.2 µM [falling, partial curve, poor fit].
On the same count and under the same terms, the value for `COc1cc(OC)c(NC(=S)Nc2cc(Cl)cc(Cl)c2)cc1Cl` was 0.0651 µM [rising, full curve, poor fit]; that for `Cn1c(O)c(N=NC(=O)Cn2c(C(F)(F)F)nc3ccccc32)c2ccccc21` was 4.61 µM [rising, single point]; that for `Cc1ccc(CCC(=O)Nc2ccccc2F)s1` was 10 µM [falling, partial curve].
As to `COc1cc(C(=S)N2CCN(C(c3ccccc3)c3ccccc3)CC2)cc(OC)c1O`, the AC50 under setting [1] was 15.8 µM [falling, single point].
For the compound `Cc1cc2c(sc3ccccc32)c(C)n1`, the AC50 under setting [1] is 35.5 µM [rising, single point].
Same read-out and setting: the value for `O=C(O)c1ccc(N=NN2CCCCC2)cc1` was 4.47 µM [falling, partial curve]; that for `O=C(Nc1ccccc1)Nc1ccc(Cl)c([N+](=O)[O-])c1` was 32.6 µM [falling, single point].
The same measure, in the same setting: the value for `CC(/C=N\Nc1nnc2c(n1)[nH]c1c(C)cccc12)=C\c1ccco1` was 7.94 µM [falling, partial curve, poor fit]; that for `Cc1ccc(NC(=O)CCc2ccc(S(=O)(=O)NC3CCCCC3)cc2)cc1` was 35.5 µM [falling, single point].
In the case of `C=CCN(CC=C)C(=O)c1ccccc1NC(=O)c1ccccc1C`, the concentration at half-maximal activity (AC50) under setting [1] is 2.82 µM [falling, partial curve, poor fit].
On the same count and under the same terms, then `CCOc1ccc(Nc2ccc([N+](=O)[O-])c3nonc23)cc1`, with 0.708 µM [rising, partial curve, poor fit]; and `COc1cc(NC(=O)c2cnn3c(C)cc(C)nc23)c(OC)cc1Cl`, with 20.6 µM [rising, partial curve, poor fit]; and `COc1cc(C(=O)NCCC2=CCCCC2)ccc1OCc1c(C)noc1C`, with 6.51 µM [rising, partial curve, poor fit].
On the same count and under the same terms, then `Cc1cc(C)c(C(=O)/C=C/c2ccco2)c(=O)[nH]1`, with 11.2 µM [falling, partial curve, poor fit]; and `COc1cc(NC(=O)c2oc3ccccc3c2C)ccc1NC(=O)c1ccco1`, with 8.91 µM [falling, single point]; and `O=C(O)c1ccccc1NS(=O)(=O)c1ccc(NN=Cc2ccc(F)cc2)c([N+](=O)[O-])c1`, with 20.6 µM [rising, single point].
For `Cc1nc2nc[nH]n2c(=O)c1NS(=O)(=O)c1ccc([N+](=O)[O-])cc1`, the AC50 under setting [1] was 35.5 µM [rising, single point].
On the same count and under the same terms, then `Nc1nc2ccccc2n1C(=O)c1ccc(F)cc1`, with 2.24 µM [falling, full curve]; and `Cc1cccc(S(=O)(=O)Nc2ccc(-c3ccc4nncn4n3)cc2)c1`, with 23.1 µM [rising, partial curve, poor fit]; and `O=C1CC(C(=O)O)S/C(=N\NC(=O)c2ccc(F)cc2)N1` (stereo not drawn), with 2.91 µM [rising, full curve, poor fit].
Still for that read-out and setting: the value for `O=C(NCc1ccccc1)C1CCCN(C(=O)Nc2ccccc2)C1` (stereo not drawn) was 23.1 µM [falling, single point].
The same measure, in the same setting: then `COc1ccc2c(COC(=O)c3n[nH]c4ccccc34)cc(=O)oc2c1`, with 0.146 µM [falling, full curve, poor fit].
For the compound `COc1cccc(Nc2nc(N)nc(C(F)(F)F)n2)c1`, the AC50 under setting [1] was 2.24 µM [rising, partial curve, poor fit].
Take `O=C(O)CCC(=O)NCc1ccc2[nH]c3c(c2c1)CCCC3`: the AC50 under setting [1] was 13 µM [falling, partial curve].
As to `Cc1ccc(-n2cc(CN(C)CCc3cn[nH]c3)c(-c3cccc(C)c3)n2)cc1`, the AC50 under setting [1] is 2.51 µM [rising, full curve, poor fit].
With `Cc1cc(=O)[nH]c(N=N/C(=N/Nc2ccc(O)cc2)c2ccccc2)n1`, the half-maximal activity concentration (AC50) reads like this: under setting [1], 10.3 µM [falling, single point]; under setting [2], 0.291 µM [rising, partial curve, poor fit].
On to `Cc1nc(SCC(=O)N(CC(C)C)C2CCS(=O)(=O)C2)c2ccccc2n1` (stereo not drawn), for which the AC50 under setting [1] was 20.6 µM [falling, partial curve].
For `Cc1cccc(NC(=O)/C(C#N)=C/c2cn(CC(=O)NCc3ccco3)c3ccccc23)c1C`, under setting [1], the half-maximal activity concentration (AC50) is 29.1 µM [rising, single point].
With `O=C(Nc1cnc2ccccc2c1)N1CCCCC1`, the AC50 under setting [1] is 17.8 µM [falling, single point].
Consider `NC(=O)C1CCN(c2nc(-c3ccc(Br)cc3)cs2)CC1`, for which the half-maximal activity concentration (AC50) under setting [1] is 32.6 µM [falling, partial curve, poor fit].
Same read-out and setting: the value for `CCc1ccn2cc(-c3ccc4c(c3)OCO4)nc2c1` was 10 µM [falling, partial curve].
`CSc1ccccc1NC(=O)c1ccc(Cl)s1`: the AC50 under setting [1] is 29.1 µM [falling, single point].
As for `O=C(CN1C(=O)NC2(CCc3ccccc32)C1=O)NCC(=O)Nc1ccc(F)cc1` (stereo not drawn), under setting [1], the AC50 is 14.6 µM [rising, partial curve, poor fit].
Take `CCSc1nc(=S)cc(C)[nH]1`: the AC50 was 15.8 µM [rising, partial curve, poor fit] under setting [1] and 12.6 µM [falling, partial curve, poor fit] under setting [2].
In the case of `CSc1nc(N)n2nc(-c3ccc(Cl)cc3)cc2n1`, the concentration at half-maximal activity (AC50) under setting [1] was 1.41 µM [falling, full curve].
